Data as given in patent publication US20060177440A1.
No constants are given. Whether binding was seen depends on the method and setting. Some binding calls cover weakened binding; strength is not graded here.

Sequences of proteins named here, by UniProt entry; tags and fusion partners are left off. Residues count along the entry.
UniProt Q02161, residues 2-417: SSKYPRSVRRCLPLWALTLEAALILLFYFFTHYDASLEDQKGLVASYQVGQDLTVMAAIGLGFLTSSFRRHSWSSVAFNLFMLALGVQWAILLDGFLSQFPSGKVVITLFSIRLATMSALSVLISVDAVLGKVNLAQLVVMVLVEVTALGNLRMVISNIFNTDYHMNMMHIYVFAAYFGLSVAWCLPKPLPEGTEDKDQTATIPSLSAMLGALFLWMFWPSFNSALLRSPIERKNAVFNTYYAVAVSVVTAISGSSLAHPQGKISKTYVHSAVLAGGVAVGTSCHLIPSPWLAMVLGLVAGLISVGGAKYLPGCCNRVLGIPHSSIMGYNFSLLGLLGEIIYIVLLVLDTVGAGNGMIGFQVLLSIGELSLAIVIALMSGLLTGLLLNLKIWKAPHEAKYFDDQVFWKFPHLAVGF

Biological target: human Rh(D) antigen (human) (UniProt Q02161)
Assay: Fab/phage agglutination (anti-M13)

- binding: binds
B1: SH36 (Fab, V domains shown)
VH: EVQLLESGGGVVQPGRSLRLSCEASKFTLYNYGMHWVRQAPGKGLEWVAFIWFDGSNKYYEDSVKGRFTVSRDNSKNTLYLQMNSLRAEDTAVYYCAREGSKKVALSRYYYYMDVWGQGTTVTVSS
VL: AELTQSPSSLSASVGDRVTITCRASQSISSYLNWYQQKPGKSPKLLIYAASSLQSGVPSRFSGSGSGTDFTLTISSLQPEDFATYYCQQSYSTPPAFGPGTKVDIKR
